# Experimental data from publication PMC12094168.
# Chains of the proteins cited; added tags and fusions are not shown.
# UniProt P13378: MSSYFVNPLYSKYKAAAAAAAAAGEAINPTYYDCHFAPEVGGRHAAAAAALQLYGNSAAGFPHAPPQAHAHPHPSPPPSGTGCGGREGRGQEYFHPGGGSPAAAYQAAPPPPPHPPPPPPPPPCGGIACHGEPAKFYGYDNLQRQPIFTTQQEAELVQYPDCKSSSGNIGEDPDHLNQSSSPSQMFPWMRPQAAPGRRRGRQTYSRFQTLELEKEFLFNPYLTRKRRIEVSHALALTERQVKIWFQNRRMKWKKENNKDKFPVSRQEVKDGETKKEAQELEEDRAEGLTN
# UniProt P19474: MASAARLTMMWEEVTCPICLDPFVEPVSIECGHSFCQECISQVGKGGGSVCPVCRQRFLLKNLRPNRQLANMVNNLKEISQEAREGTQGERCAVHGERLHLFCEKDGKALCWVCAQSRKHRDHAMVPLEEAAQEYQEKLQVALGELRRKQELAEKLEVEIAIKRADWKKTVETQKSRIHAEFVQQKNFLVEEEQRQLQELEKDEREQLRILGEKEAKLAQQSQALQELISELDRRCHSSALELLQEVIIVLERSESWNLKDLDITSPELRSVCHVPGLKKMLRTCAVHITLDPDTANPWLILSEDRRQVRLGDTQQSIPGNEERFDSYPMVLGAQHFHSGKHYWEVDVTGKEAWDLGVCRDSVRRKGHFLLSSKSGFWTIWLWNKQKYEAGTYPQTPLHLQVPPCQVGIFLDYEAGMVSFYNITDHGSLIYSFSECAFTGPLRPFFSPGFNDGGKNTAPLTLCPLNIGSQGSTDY
# No constants are given. Whether binding was seen depends on the method and setting. Binding seen in cells or lysates may run through a third protein. Some results given as binding are weak or reduced against the parent protein; the word gives no strength.
# Columns and labels:
# [1] = biological target: Myc-HOXD8 (homeobox gene D8) (UniProt P13378); assay: co-IP; 293 T cells overexpressing Flag-TRIM21 and Myc-HOXD8; RIPA lysate incubated with antibody (anti-Flag, anti-Myc or IgG control) overnight at 4°C, protein A/G beads 4 h, western blot
# [2] = biological target: TRIM21 (tripartite motif containing 21), endogenous (human (endogenous in CPT MSCs)) (UniProt P19474); assay: co-IP; endogenous proteins in CPT MSCs; RIPA lysate incubated with antibody (anti-HOXD8 for immunoprecipitation, IgG control) overnight at 4°C, protein A/G beads 4 h, western blot
# [3] = biological target: Flag-TRIM21 (tripartite motif containing 21) (UniProt P19474); assay: co-IP; 293 T cells overexpressing Flag-TRIM21 and Myc-HOXD8; RIPA lysate incubated with antibody (anti-Flag, anti-Myc or IgG control) overnight at 4°C, protein A/G beads 4 h, western blot
# [4] = biological target: HOXD8 (homeobox gene D8), endogenous (human (endogenous in CPT MSCs)) (UniProt P13378); assay: co-IP; endogenous proteins in CPT MSCs; RIPA lysate incubated with antibody (anti-HOXD8 for immunoprecipitation, IgG control) overnight at 4°C, protein A/G beads 4 h, western blot
substance,measurement,setting,value
Flag-TRIM21 (tripartite motif containing 21) (from UniProt P19474 1-475),binding,[1],binds
"HOXD8 (homeobox gene D8), endogenous (from UniProt P13378 1-290)",binding,[2],binds
Myc-HOXD8 (homeobox gene D8) (from UniProt P13378 1-290),binding,[3],binds
"TRIM21 (tripartite motif containing 21), endogenous (from UniProt P19474 1-475)",binding,[4],binds
